Measured values reported in PubChem BioAssay AID651640 (Broad Institute, 2012).
The whole screen tested about 350,000 compounds, of which about 6,000 (1.7%) were called active. The shares of active, inactive and inconclusive entries below differ from those in the screen. No stated cut-off is given here; in the data, active means CPE inhibition above about 20% (passing the limit was not always enough); inconclusive means no clear call, values can overlap the other calls; tested in BHK-21 cells.

Experiment: protection of cells from dengue 2 killing – plate reader, single concentration, primary screen (AID 651640);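 further: 0% = median of neutral control wells and 100% = median of positive control wells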
Conditions: DENV2-infected cells, cytopathic effect rescue, at 9.99 µM, hits give high values
With `CCC(c1ccc(C)cc1)N1C(=O)C2C3CCC(O3)C2C1=O` (configuration not stated) the CPE inhibition was active: 25.3%. With `C/C=C/c1ccc(C2[C@H]3CNC[C@@H]2N3CC2CCCCC2)cc1` (some centres not stated) the CPE inhibition was inactive: 0.312%. In the case of `C/C(=N\NC(=O)c1ccccc1)c1c(O)n(C2CCCCC2)c(=O)[nH]c1=O`, the CPE inhibition is reported as inactive: 4.09%. For `O=S(=O)(c1ccc(Cl)cc1)N1Cc2ccc(Br)cc2-n2nncc2C1`, the CPE inhibition was inconclusive: 45.4%. For `c1ccc(Nc2ccc(Nc3ccccc3)cc2)cc1`, the CPE inhibition was active: 40.8%. In the case of `COC1C(O)C(C)OC(OC2CCC3(C=O)C(CCC4C3CCC3(C)C(C5=CC(=O)OC5)CCC43O)C2)C1O` (configuration not stated), the CPE inhibition is reported as inconclusive: 86.7%. With `C[C@@H]1O[C@@H](O[C@@H]2C=C3CCC4C(CC[C@]5(C)[C@@H](c6ccc(=O)oc6)CC[C@]45O)[C@@]3(C)CC2)[C@H](O)[C@H](O)[C@H]1O` (some centres not stated) the CPE inhibition was inactive: 0.189%. With `COC(=O)C1=C(c2cccc(OC)c2OC)C[C@@H]2CC[C@H]1N2C(=O)N1CCC(C)CC1` the CPE inhibition was inconclusive: 21.1%. In the case of `CCN(CC)C(=O)c1ccc(NC(=O)c2ccc3c(c2)NC(=O)CS3)cc1`, the CPE inhibition is reported as inconclusive: 21.3%. With `O=C(CCC(=O)N1C[C@H]2C[C@@H](C1)c1cccc(=O)n1C2)NCc1ccccc1C(F)(F)F` the CPE inhibition was active: 25.4%. With `COc1ccc(CN(CCc2c[nH]c3ccccc23)Cc2ccc(OC)cc2)cc1` the CPE inhibition was inconclusive: 28.8%. For `CCOC(=O)c1cccc(C2=C(CNC(=O)c3cccnc3)[C@H]3CC[C@@H](C2)N3Cc2ccccc2)c1`, the CPE inhibition was inconclusive: 27.2%. For `COc1ccc(CC2(CCc3ccncc3)C(=O)NC(=O)NC2=O)c(OC)c1`, the CPE inhibition was inconclusive: 23%. In the case of `Oc1cc(Cl)c(Cl)cc1Cl`, the CPE inhibition is reported as inactive: 8.92%. For `COC(=O)C1=C(c2cc3ccccc3s2)C[C@@H]2CC[C@H]1N2C(=O)NCc1ccccc1`, the CPE inhibition was active: 117%. For `COC(=O)C1=C(c2ccc(F)cc2OCc2ccccc2)C[C@@H]2CC[C@H]1N2C(=O)N1CCC(O)(c2ccc(Cl)cc2)CC1`, the CPE inhibition was active: 76.5%. With `CCc1ccccc1NC(=O)N1C[C@H]2C[C@@H](C1)c1cccc(=O)n1C2` the CPE inhibition was inconclusive: 24.9%. For `CCOS(C)(=O)=O`, the CPE inhibition was active: 47.7%. With `CC(=O)N[C@@H]1CC[C@@]2(O)[C@H]3Cc4ccc(O)c5c4[C@@]2(CCN3CC2CC2)[C@@H]1O5` the CPE inhibition was inconclusive: 29.9%. With `CN1C2CCC1CC(OC(=O)c1ccc([N+](=O)[O-])cc1)C2` (configuration not stated) the CPE inhibition was active: 65.9%. With `COCC(=O)N1[C@@H]2Cn3c(ccc(C4=CCCC4)c3=O)[C@H]1[C@@H](C(=O)OC)[C@@H]2CO` the CPE inhibition was inconclusive: 20.8%. For `C[C@]12CCC3C(CCC4=CC(O)CC[C@@]43/C=N/O)C1(O)CCC2C1=CC(=O)OC1` (some centres not stated), the CPE inhibition was inactive: 7.35%. In the case of `CC(C)c1cccc(C(C)C)c1O`, the CPE inhibition is reported as inconclusive: 43.6%. In the case of `Cn1c(O)c(/C=N/NC(=O)c2ccncc2)c(=O)n(C)c1=S`, the CPE inhibition is reported as inactive: 2.33%. For `Cc1c(CC(=O)N2C[C@H]3C[C@@H](C2)c2cccc(=O)n2C3)c(=O)oc2c(C)c(O)ccc12`, the CPE inhibition was inactive: 14.3%. In the case of `CCC(c1nnnn1-c1ccc2c(c1)OCCO2)N1CCC(n2c(=O)[nH]c3ccccc32)CC1` (configuration not stated), the CPE inhibition is reported as inconclusive: 32.4%. For `Cc1cc(C)cc(OCCOc2cccc(C=C3C(=O)NC(=O)NC3=O)c2)c1`, the CPE inhibition was inconclusive: 40.8%. With `N#Cc1ccc(-c2ccc([C@H]3[C@H]4CN(C(=O)Cc5ccccc5)CCCCN4[C@H]3CO)cc2)cc1` the CPE inhibition was inactive: -8.76%. For `Cc1ccc(CC(=O)N2CCN(Cc3ccccc3)CC2)cc1`, the CPE inhibition was inconclusive: 23.2%. With `Cc1ccccc1-n1c(O)c(/C=N/NC(=O)c2ccccc2O)c(=O)[nH]c1=S` the CPE inhibition was inactive: 2.23%. In the case of `O=C(c1ccc(CNS(=O)(=O)c2ccc(Br)cc2)cc1)N1CCC2(CC1)OCCO2`, the CPE inhibition is reported as active: 37.1%. In the case of `Cc1ccc(OC(=O)N(C)C[C@H]2OCc3cnnn3CCCC(=O)N([C@@H](C)CO)C[C@H]2C)cc1`, the CPE inhibition is reported as inconclusive: 58.1%. In the case of `CC=Cc1ccc2n(c1=O)C[C@H]1[C@H](CO)[C@@H](C(=O)OC)[C@@H]2N1CC1CCOCC1` (mixture of isomers), the CPE inhibition is reported as inactive: -5.94%. In the case of `CCCCCCCCCCCCCCCC[N+](C)(C)C`, the CPE inhibition is reported as inconclusive: 59.5%. In the case of `Cc1ccc2c(c1N)C(=O)c1ccccc1C2=O`, the CPE inhibition is reported as active: 30.5%. With `Oc1ccc2c3c1O[C@H]1[C@@H](O)CC[C@@]4(O)[C@@H](C2)N(CC2CCC2)CC[C@]314` the CPE inhibition was inconclusive: 47.4%. With `COc1ccc(-n2nnnc2C(CCc2ccccc2)N2CCC(n3c(=O)[nH]c4ccccc43)CC2)cc1` (configuration not stated) the CPE inhibition was active: 56.4%. In the case of `COc1ccc(-c2ccc([C@H]3[C@H](CO)N4CCCCN(C(=O)Cc5ccncc5)C[C@@H]34)cc2)cc1`, the CPE inhibition is reported as active: 40.9%. With `Cc1ccnc(-n2c(C)cc(/C=C3\C(=O)NC(=S)N(C)C3=O)c2C)c1` the CPE inhibition was active: 47.7%. For `COc1ccc(-c2cc(=NCCCCCC(=O)O)c3cc(C)ccc3o2)cc1`, the CPE inhibition was inconclusive: 24.6%. For `N#Cc1cccc(-c2ccc([C@@H]3[C@H](CO)N4CCCCN(C(=O)Cc5cccnc5)C[C@@H]34)cc2)c1`, the CPE inhibition was inconclusive: 37.1%. For `CN1CCc2cc3c(cc2[C@H]1[C@@H]1OC(=O)c2c1ccc1c2OCO1)OCO3`, the CPE inhibition was inconclusive: 44.1%. For `O=C(COC(=O)c1cc(Br)cc(Br)c1O)NC12CC3CC(CC(C3)C1)C2`, the CPE inhibition was inconclusive: 20.1%. In the case of `O=S(=O)(c1ccc(F)cc1)N1CCCC1c1cccnc1` (configuration not stated), the CPE inhibition is reported as inconclusive: 39.5%. For `C/C=C/c1ccc2c(c1)OCO2`, the CPE inhibition was active: 20.1%. For `CS(=O)(=O)c1ccc(C2=C(CNC(=O)c3nccs3)[C@H]3CC[C@@H](C2)N3Cc2ccccc2)cc1`, the CPE inhibition was inconclusive: 20.1%. In the case of `Nc1ccc(CC2=NCCN2)cc1`, the CPE inhibition is reported as active: 37.8%. With `CSc1ncc(Br)c(N2CC2)n1` the CPE inhibition was inactive: -9.9%. In the case of `N#Cc1cccc(-c2ccc([C@H]3[C@@H](CO)N4CCCCN(C(=O)Cc5cccnc5)C[C@H]34)cc2)c1`, the CPE inhibition is reported as active: 38%. In the case of `CCOC(=O)[C@]12Cc3cc4c(cc3[C@H]1N(Cc1ccccc1)C(=O)c1ccccc12)OCO4`, the CPE inhibition is reported as inconclusive: 36.2%. In the case of `COc1ccc(-n2nnnc2C(c2cccc3ccccc23)N2CCC3(CC2)C(=O)NCN3c2ccccc2)cc1` (configuration not stated), the CPE inhibition is reported as inconclusive: 27.2%. With `CC=Cc1ccc2n(c1=O)C[C@@H]1[C@@H](CO)[C@H](C(=O)OC)[C@H]2N1C(=O)CC` (mixture of isomers) the CPE inhibition was inactive: 3.72%. For `CC(=O)O[C@H]1C(=O)[C@@]2(C)C([C@H](OC(=O)c3ccccc3)[C@]3(O)C[C@H](O)C(C)=C1C3(C)C)[C@]1(OC(C)=O)CO[C@@H]1C[C@H]2O` (some centres not stated), the CPE inhibition was inconclusive: 55.4%. For `COC(=O)C(O)(c1ccc(NC(=O)NC2CCCCC2)cc1)C(F)(F)F` (configuration not stated), the CPE inhibition was inconclusive: 33.5%. In the case of `CCOC(=O)C(c1c(O)c2ccccc2oc1=O)c1c(O)c2ccccc2oc1=O`, the CPE inhibition is reported as inactive: -1.15%. With `CC=Cc1ccc2n(c1=O)C[C@@H]1[C@@H](CO)[C@H](C(=O)N(C)C)N[C@H]21` (mixture of isomers) the CPE inhibition was inconclusive: 42.5%. With `Cc1ccc(OC(F)F)c(N2C(=O)C3C4CCC(O4)C3C2=O)c1` (configuration not stated) the CPE inhibition was inactive: -8.85%. With `O=c1cccc2n1CC1CC2CN(CC(O)CN2CC3CC(C2)c2cccc(=O)n2C3)C1` (configuration not stated) the CPE inhibition was inconclusive: 37.2%. For `CN=C(SCC(=O)c1cccc(Cl)c1)c1c(O)n(C)c(=O)n(C)c1=O`, the CPE inhibition was inconclusive: 28.1%. For `COC(=O)C1=C(c2ccc(F)cc2OCc2ccccc2)C[C@@H]2CC[C@H]1N2C(=O)NCCOc1ccccc1`, the CPE inhibition was inconclusive: 20.7%. With `COc1ccc(CN2Cc3cnnn3-c3ccccc3C2c2ccccc2)cc1` (configuration not stated) the CPE inhibition was inconclusive: 30.4%. In the case of `CCN(CC)C(=O)c1ccc(NC(=O)c2cccc(C(F)(F)F)c2)cc1`, the CPE inhibition is reported as inactive: 4.22%. With `Fc1ccccc1CNCCc1c[nH]c2ccccc12` the CPE inhibition was active: 32%. For `COc1ccc(C(c2nnnn2-c2ccc3c(c2)OCCO3)N2CCC(n3c(=O)[nH]c4ccccc43)CC2)cc1` (configuration not stated), the CPE inhibition was inconclusive: 31.1%. In the case of `COC(=O)C1=C(c2cccc3c2S(=O)(=O)c2ccccc2-3)C[C@@H]2CC[C@H]1N2C(=O)N1CCc2cc(OC)c(OC)cc2C1`, the CPE inhibition is reported as inconclusive: 45.8%. For `C=CCC1(CC)C(=O)NC(=S)NC1=O`, the CPE inhibition was inconclusive: 26.9%. For `CCN(CC)C(=O)[C@@H]1C=C2c3cccc4[nH]c(Br)c(c34)C[C@H]2N(C)C1`, the CPE inhibition was inconclusive: 54.3%. For `O=C(Cc1ccccc1)N1CCCCN2[C@@H](CO)[C@@H](c3ccc(-c4ccccc4)cc3)[C@@H]2C1`, the CPE inhibition was inactive: -10.1%. With `COC(=O)[C@@H]1[C@@H](CO)[C@@H]2Cn3c(ccc(C4=CCCCC4)c3=O)[C@H]1N2Cc1ccccc1OC` the CPE inhibition was active: 23.8%. In the case of `CCOC(=O)[C@]12Cc3cc(OC)ccc3[C@H]1N(C(C)C)C(=O)c1ccccc12`, the CPE inhibition is reported as active: 28.6%. In the case of `COC(=O)C1=C(c2ccc(OC)c(OC)c2)C[C@@H]2CC[C@H]1N2C(=O)NCc1ccco1`, the CPE inhibition is reported as inconclusive: 29.2%. With `Cc1cnc(NC(=O)CN2CCCCC2)s1` the CPE inhibition was inconclusive: 54.2%. In the case of `CCOC(=O)[C@]12Cc3ccccc3[C@H]1N(C)C(=O)c1cc(OC)ccc12`, the CPE inhibition is reported as inconclusive: 29.6%. For `COP(=S)(OC)Oc1ccc(Sc2ccc(OP(=S)(OC)OC)cc2)cc1`, the CPE inhibition was inconclusive: 21.1%. With `COc1ccc(Cl)cc1C(=O)C1CCCN(CCO)C1` (configuration not stated) the CPE inhibition was inconclusive: 22.4%. In the case of `O=C1CC(=O)N(Cc2ccccc2)C(=S)N1`, the CPE inhibition is reported as active: 23.4%. In the case of `CC(C)NC(=O)N1[C@@H]2c3ccc(-c4cccc(C(=O)N(C)C)c4)c(=O)n3C[C@H]1[C@H](CO)[C@H]2C(=O)O`, the CPE inhibition is reported as inconclusive: 26.3%.
